# “And” between values parts separate entries of the source, which are not always exact repeats. Identical values can stand only once. Some of the results follow. The main result of the screen is listed elsewhere. These columns were measured beside it and carry no call. For some assays here: Compounds called inactive in the main read-out are mostly missing here. Potencies come from curve fits of mixed quality, noted in brackets.
# Amino acid sequences for entries named in this document (tags omitted). A change or cut given only in a name is not applied to a line headed by its entry.
# UniProt P50135: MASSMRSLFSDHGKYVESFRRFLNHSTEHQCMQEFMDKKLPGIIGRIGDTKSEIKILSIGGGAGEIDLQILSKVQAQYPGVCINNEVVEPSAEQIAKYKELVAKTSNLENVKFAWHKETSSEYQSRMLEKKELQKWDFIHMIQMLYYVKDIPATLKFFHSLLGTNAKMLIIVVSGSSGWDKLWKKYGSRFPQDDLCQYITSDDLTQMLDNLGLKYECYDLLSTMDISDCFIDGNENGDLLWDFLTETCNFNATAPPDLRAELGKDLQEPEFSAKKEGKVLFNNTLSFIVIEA
# UniProt P40261: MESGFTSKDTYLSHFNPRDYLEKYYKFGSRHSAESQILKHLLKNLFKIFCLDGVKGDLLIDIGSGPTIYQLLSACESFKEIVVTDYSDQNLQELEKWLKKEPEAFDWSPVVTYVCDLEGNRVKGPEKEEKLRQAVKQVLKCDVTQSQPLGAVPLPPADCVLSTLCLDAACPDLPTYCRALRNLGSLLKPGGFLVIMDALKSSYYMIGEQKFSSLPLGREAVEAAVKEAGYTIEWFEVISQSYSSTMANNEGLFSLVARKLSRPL
# Columns and labels:
# [1] = A High-Content qHTS Against Drug Library for the Identification of Small Molecules that Inhibit DYT1 Early Onset Primary Dystonia-Associated Cell Pathology (AID 1645839); conditions: HEK293 Flp-In EGFP-delE TorsinA, punctate imaging, 48 h; measured here: cell count cytotoxicity
# In short: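 Cells were seeded and left for 24 h, then dosed with compound alongside tetracycline induction of mutant EGFP-TorsinA. They were incubated for 48 h, fixed in 4% paraformaldehyde, permeabilized and imaged for mislocalization (%pathology) and cell count.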
# [2] = molecular target: Histamine N-methyltransferase (Homo sapiens) (UniProt P50135); experiment: Confirmatory Screen for Target Class Profiling of Small Molecule Inhibitors of Methyltransferases (AID 1745852); conditions: MTase-Glo luminescence, SAH detection, recombinant enzyme; measured here: HNMT inhibition potency
# [3] = molecular target: Nicotinamide N-methyltransferase (Homo sapiens) (UniProt P40261); experiment: as above; conditions: MTase-Glo luminescence, SAH detection, recombinant enzyme; measured here: NNMT inhibition potency
# [4] = NCATS anti-infectives library activity on the primary C. elegans qHTS viability assay (AID 1745855); conditions: C. elegans worm area imaging
# In short: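 GFP read-out by 488 nm laser cytometry at day 0, 3 and 7, gated on object perimeter, area and peak intensity, scored viability of PE254-GFP-FLuc worms exposed to compound in S medium with bacterial capsules at 21 °C.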
# [5] = qHTS drug screen for cell cycle checkpoint inhibitors in PARPi-resistant BRCA-mutant ovarian cancer cell lines. (AID 1963452); conditions: PEO1/OlaR viability, CellTiter-Glo luminescence, 96 h; measured here: PEO4 viability
# In short: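 PEO1, PEO4 and PEO1/OlaR ovarian cancer cells, 600 per well, exposed 96 h at 37C to a dilution series. Viability read by CellTiter-Glo luminescence, normalized to DMSO and empty wells; activity summarized as Z-AUC.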
structure (smiles),measurement,setting,value
CN(C)CCOC(c1ccccc1)c1ccc(Br)cc1 (centres undefined),AC50,[1],"8.91 µM [falling, partial curve, poor fit]"
CCCCCCCCCCCCCCCCCCNC(=O)OC1CCN(C(=O)OC[C@H](COC(=O)N(Cc2cccc[n+]2CC)C(=O)c2ccccc2OC)OC)CC1,AC50,[1],"22.4 µM [falling, single point]"
CC(=O)N(CC(O)CO)c1c(I)c(C(=O)NCCO)c(I)c(C(=O)NCC(O)CO)c1I (centres undefined),AC50,[1],"15.8 µM [falling, single point]"
O=C1NC2CCCCN2C12CCN(CCCN1c3ccccc3CCc3ccc(Cl)cc31)CC2 (centres undefined),AC50,[1],"2 µM [falling, full curve, poor fit]"
same,IC50,[2],"6.81 µM [falling, full curve]"
same,IC50,[3],"21.5 µM [falling, partial curve, poor fit]"
CCC1C(=O)OCC1Cc1cncn1C (centres undefined),AC50,[1],"1.41 µM [rising, full curve, poor fit]"
Cc1ccccc1N=Nc1ccc(N=Nc2c(O)ccc3ccccc23)c(C)c1,AC50,[1],"20 µM [rising, single point]"
COC(=O)C1=C(C)NC(COC(N)=O)=C(C(=O)OC(C)C)C1c1cccc(Cl)c1Cl (centres undefined),AC50,[1],"28.2 µM [falling, single point]"
O=C1Nc2ccc(Cl)cc2[C@@](C#CC2CC2)(C(F)(F)F)O1,AC50,[1],"35.5 µM [falling, single point]"
same,IC50,[3],"24.1 µM [falling, partial curve]"
same,AC50,"[4]; day 7, measured here: worm number","25.8 µM [falling, single point]"
same,AC50,"[4]; day 7, measured here: worm area, day 3","57.8 µM [falling, single point]"
same,AC50,[5],"17.4 µM [falling, single point] and 27.5 µM [falling, single point]"

# — PubChem BioAssay (NCATS)
